Results are given in words; binding and its absence hold for the method and conditions named. Binding seen in cells or lysates may run through a third protein. Some entries that bind do so weakly or less than the wild type. For some of these results: Tags and fused reporters may be left off the sequences shown.
T1: Flag-tagged ANGPTL4 (Angiopoietin-like 4) (human) (UniProt Q9BY76)
T1 sequence: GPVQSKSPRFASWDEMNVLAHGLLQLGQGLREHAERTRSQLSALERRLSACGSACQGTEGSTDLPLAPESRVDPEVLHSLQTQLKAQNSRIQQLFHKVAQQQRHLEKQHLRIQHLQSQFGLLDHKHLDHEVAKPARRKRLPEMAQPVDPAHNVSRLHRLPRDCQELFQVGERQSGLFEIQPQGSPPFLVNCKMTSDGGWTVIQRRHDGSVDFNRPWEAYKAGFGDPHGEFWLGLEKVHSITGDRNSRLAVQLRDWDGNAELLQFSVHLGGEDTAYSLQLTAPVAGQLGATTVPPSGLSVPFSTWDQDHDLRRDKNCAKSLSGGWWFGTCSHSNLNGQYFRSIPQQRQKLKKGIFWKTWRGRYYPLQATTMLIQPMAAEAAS

Protein sequences, listed by entry. Tags and fused reporters are not part of them.
UniProt O43474: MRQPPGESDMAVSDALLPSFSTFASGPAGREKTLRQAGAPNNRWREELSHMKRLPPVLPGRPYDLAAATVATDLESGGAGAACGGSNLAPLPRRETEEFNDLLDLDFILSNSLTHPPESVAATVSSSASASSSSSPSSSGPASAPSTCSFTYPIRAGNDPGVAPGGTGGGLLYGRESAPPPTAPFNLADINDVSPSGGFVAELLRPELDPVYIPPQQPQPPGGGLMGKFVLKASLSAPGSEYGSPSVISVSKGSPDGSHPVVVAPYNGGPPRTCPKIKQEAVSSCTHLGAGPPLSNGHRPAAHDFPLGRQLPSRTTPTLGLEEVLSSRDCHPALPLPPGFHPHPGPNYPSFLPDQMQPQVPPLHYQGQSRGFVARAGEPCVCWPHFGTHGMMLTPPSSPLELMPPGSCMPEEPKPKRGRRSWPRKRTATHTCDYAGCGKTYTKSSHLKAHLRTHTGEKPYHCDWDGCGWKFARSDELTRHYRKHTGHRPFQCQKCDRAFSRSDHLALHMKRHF


Legend:
[1] = biological target: T1, Flag-tagged ANGPTL4 (Angiopoietin-like 4) (human); assay: co-IP; 293T cells transfected with Flag-ANGPTL4 and HA-KLF4; reciprocal immunoprecipitation; NP-40 lysis buffer (20 mM Tris-HCl pH 7.5, 150 mM NaCl, 1.5 mM MgCl2, 2 mM EDTA, 0.5% NP-40), primary antibody overnight at 4 °C, protein A/G agarose, immunoblot
[2] = biological target: HA-tagged KLF4 (UniProt O43474); assay: as above
[3] = biological target: KLF4, endogenous in TNBC cells (human (endogenous in MDA-MB-468 and MDA-MB-231)) (UniProt O43474); assay: co-IP; lysates of TNBC cells: MDA-MB-468 with ANGPTL4 overexpression, MDA-MB-231 with KLF4 knock-down; NP-40 lysis buffer, primary antibody overnight at 4 °C, protein A/G agarose, immunoblot; the precipitating antibody is not stated

| binding [3] | Molecule | further results |
| --- | --- | --- |
| – | HA-tagged KLF4 (from UniProt O43474 1-513) | binding [1]: binds |
| – | Flag-tagged ANGPTL4 (Angiopoietin-like 4) (protein, UniProt Q9BY76 26-406) GPVQSKSPRFASWDEMNVLAHGLLQLGQGLREHAERTRSQLSALERRLSACGSACQGTEGSTDLPLAPESRVDPEVLHSLQTQLKAQNSRIQQLFHKVAQQQRHLEKQHLRIQHLQSQFGLLDHKHLDHEVAKPARRKRLPEMAQPVDPAHNVSRLHRLPRDCQELFQVGERQSGLFEIQPQGSPPFLVNCKMTSDGGWTVIQRRHDGSVDFNRPWEAYKAGFGDPHGEFWLGLEKVHSITGDRNSRLAVQLRDWDGNAELLQFSVHLGGEDTAYSLQLTAPVAGQLGATTVPPSGLSVPFSTWDQDHDLRRDKNCAKSLSGGWWFGTCSHSNLNGQYFRSIPQQRQKLKKGIFWKTWRGRYYPLQATTMLIQPMAAEAAS | binding [2]: binds |
| binds | ANGPTL4 overexpressed in MDA-MB-468 cells (protein, UniProt Q9BY76 26-406) GPVQSKSPRFASWDEMNVLAHGLLQLGQGLREHAERTRSQLSALERRLSACGSACQGTEGSTDLPLAPESRVDPEVLHSLQTQLKAQNSRIQQLFHKVAQQQRHLEKQHLRIQHLQSQFGLLDHKHLDHEVAKPARRKRLPEMAQPVDPAHNVSRLHRLPRDCQELFQVGERQSGLFEIQPQGSPPFLVNCKMTSDGGWTVIQRRHDGSVDFNRPWEAYKAGFGDPHGEFWLGLEKVHSITGDRNSRLAVQLRDWDGNAELLQFSVHLGGEDTAYSLQLTAPVAGQLGATTVPPSGLSVPFSTWDQDHDLRRDKNCAKSLSGGWWFGTCSHSNLNGQYFRSIPQQRQKLKKGIFWKTWRGRYYPLQATTMLIQPMAAEAAS | – |
| binds | ANGPTL4, endogenous in MDA-MB-231 cells (protein, UniProt Q9BY76 26-406) GPVQSKSPRFASWDEMNVLAHGLLQLGQGLREHAERTRSQLSALERRLSACGSACQGTEGSTDLPLAPESRVDPEVLHSLQTQLKAQNSRIQQLFHKVAQQQRHLEKQHLRIQHLQSQFGLLDHKHLDHEVAKPARRKRLPEMAQPVDPAHNVSRLHRLPRDCQELFQVGERQSGLFEIQPQGSPPFLVNCKMTSDGGWTVIQRRHDGSVDFNRPWEAYKAGFGDPHGEFWLGLEKVHSITGDRNSRLAVQLRDWDGNAELLQFSVHLGGEDTAYSLQLTAPVAGQLGATTVPPSGLSVPFSTWDQDHDLRRDKNCAKSLSGGWWFGTCSHSNLNGQYFRSIPQQRQKLKKGIFWKTWRGRYYPLQATTMLIQPMAAEAAS | – |

— paper PMC12231887
